Percent effect of library compounds

From ChEMBL document CHEMBL3988442, “University of Dundee, Small-Polar-MMV Screening Library” (2021).

Each number is a percent effect as filed.
How 0% and 100% were set is not recorded. Most values in the screen are low, and negative values occur.
This is an unselected part of the compounds tested.
Two or more numbers in one place are separate tests of the same structure; such repeats can differ widely.

A: 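Whole-cell growth test on Mycobacterium tuberculosis, read after 3 days in glucose-containing 7H9 medium; the read-out is not stated. Compounds at 50 µM. Direction is inferred from retests: higher values go with more growth inhibition. Of about 69,000 compounds tested this way, about 760 (1.1%) reached 50% or more in at least one test.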
B: 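Phenotypic screen: M. tuberculosis growth, cholesterol and DPPC medium, 4 days; the read-out is not stated. Concentration: 50 µM. The record gives no direction; compounds that gave an IC50 in retests scored well above the rest, so higher reads as more growth inhibition. Of about 69,000 compounds tested this way, about 370 (0.54%) reached 50% or more in at least one test.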

compound: CCn1cnnc1CNC(=O)c1cc(Cl)ccc1O
A: -30.79
B: -42.86

compound: Cc1nc(C)c(CCN2CCC(Oc3ccccc3F)CC2)s1
A: 56.83
B: 24.09

compound: Cc1cc(CNc2cc(Cl)ccc2Cl)no1
A: 27.1
B: 19.79

compound: CC(C)(C)c1cc(C[C@H]2CNCC[C@H]2CC(=O)N2CCCCC2)no1
A: 3.389 & -5.331
B: 3.889

compound: O=C(O)C(F)(F)F.[H][C@]12C[C@H](C(=O)NC)N(S(C)(=O)=O)[C@@]1([H])CN(C(=O)c1cccnc1)C2
A: -8.011
B: -13.93

compound: O=C(COCc1ccccc1Cl)N1CCN(c2cnccn2)CC1
A: -8.996
B: -26.35

compound: Cc1cccc(CN2CC3(CCN(C(N)=O)CC3)OCC2=O)n1
A: 11.77
B: -5.835

compound: CCCNC(=O)N1CCC(Oc2cc(C)ccc2F)(C(=O)O)CC1
A: 1.46 & -3.59
B: -8.69

compound: COCc1ccccc1C(=O)OCc1noc(C)n1
A: -1.108
B: 1.708

compound: Cc1cc(C)c2c(OCC(=O)NCC(O)C(F)(F)F)nn(C)c2n1 (stereo unspecified)
A: 5.226 & 5.513
B: 16.52

compound: Cc1ccc2cc(CNCCCN3CCOCC3)c(=O)[nH]c2c1
A: 5.696
B: -19.66

compound: CC(C)c1nc(O)c2nnn(C[C@H]3CCCN(Cc4cccs4)C3)c2n1
A: -9.659
B: -10.93

compound: N#Cc1ccc(Cl)cc1NCC1CC1
A: 9.792
B: -27.76

compound: CCc1ncc2c(n1)CN(Cc1nc(-c3ccsc3)oc1C)CC2
A: -4.923
B: -8.781

compound: O=C(O)C(F)(F)F.O=C1N(Cc2ccncc2)CCC12CCCN(c1ncc(F)cn1)C2 (stereo unspecified)
A: -24.24
B: 23.86

compound: Cc1cc(C(F)(F)F)nc(C2(C)CCCN2CC(N)=O)n1 (stereo unspecified)
A: -21.23
B: -15.47 & -12.86

compound: CC(NC(=O)NCc1c(F)cccc1Cl)(C(=O)O)c1ccco1 (stereo unspecified)
A: 7.153
B: -13.84

compound: CCN1CCN(S(=O)(=O)c2cc(C)c(Cl)cc2C)CC1
A: 36.5
B: 3.823

compound: COc1c[nH]c(C(=O)Nc2nc(C)cs2)cc1=O
A: 4.237
B: 19.51

compound: Cc1cnn(CCNCCCOc2ccc3c(c2)OCO3)c1
A: 34.38 & 44.47
B: 40.55

compound: COc1cccc2ccn(CC(=O)NC(C)C)c12
A: -1.679
B: -20.86

compound: CC(=O)N1CCN(c2cnnc(N3CCCC3)c2)CC1
A: -9.326
B: -27.76

compound: Cc1cc(C(=O)N2CCc3c(CN(C)C(C)C)n[nH]c3C2)[nH]n1
A: -12.93
B: 11.98

compound: CN1CC(c2ccccc2)CC2(CCN(CC(=O)N(C)C)CC2)C1 (stereo unspecified)
A: 3.441
B: 4.23

compound: Cc1nc(C(=O)NCCS(=O)(=O)N2CCCC2)cs1
A: -25.37 & -6.73
B: -29.31

compound: CC(C)OCCN1CCN(C(=O)c2cccc(-n3cccn3)n2)CC1
A: 1.47
B: 10.89

compound: O=C(O)C(F)(F)F.c1csc(CN2CCC3(CCCN(c4nncs4)C3)C2)n1 (stereo unspecified)
A: -8.153 & 3.032
B: 5.954 & -4.25

compound: O=C(NCCO)Nc1cccc(Cl)c1SC(F)F
A: -22.1 & -20.33
B: -27.18

compound: CN(CC1CC1)C(=O)c1cc2c(c(S(N)(=O)=O)c1)CCC2
A: 21.3
B: 6.496

compound: c1cnc(N2CCC(c3cc4cccnc4[nH]3)CC2)nc1
A: 7.454
B: -0.9589

compound: CCN1CCN(C2CCN(Cc3nnc(C4CC4)o3)CC2)C1=O
A: -9.267
B: -11.33

compound: COC(=O)c1ccccc1NC(=O)c1c(C)cn(C)c1CC(=O)O
A: -27.81
B: -37.2

compound: COc1ccc(NC(=O)Nc2cnc(N3CCN(C)CC3)nc2)cc1Cl
A: 32.79
B: 9.477